Assay results taken from patent US8338619B2, “Crystalline form of the zoledronic acid, a process to obtain it and the pharmaceutical composition comprising it” (Gador S.A., priority 2005, dated 2012).
For at least one compound, name, drawing or mass did not settle the structure.

Columns and labels:
Format in all cases: physicochemical
[1] = Exposure of the crystalline form to high relative humidity; conditions: 75 to 96% relative humidity at 30-40° C. during 24 hours
[2] = TGA Kinetics Analysis of dehydration (constant heating rate thermogravimetry, ASTM E1641); conditions: at 50.0 percent of conversion level; TGA at 5, 10 and 20° C./min from 25 to 200° C., dry nitrogen purge; Trihydrate
[3] = Contact of the trihydrate with methanol (preliminary solvent tests)

In the case of `O=P(O)(O)C(O)(Cn1ccnc1)P(=O)(O)O` [Zoledronic acid trihydrate, Zoledronic Acid Trihydrate], the “X-rays powder diffractogram and thermal profile (TGA and DSC) after exposure to humidity” value [1] is reported as “unchanged”, the “water absorption on exposure to humidity” value [1] is reported as “does not absorb water” and the “Activation energy (dehydration to anhydrous form)” value [2] is reported as 79.9.0 kJ/mole. For the same compound, the “solid form change in contact with methanol” value [3] was “loses water and changes first to monohydrate and then to anhydrous form”.
